Results: paper PMC9688820
No constants are given. Whether binding was seen depends on the method and setting. Binding seen in cells or lysates may run through a third protein. Some binding calls cover weakened binding; strength is not graded here.

Sequences of proteins named here, by UniProt entry; tags and fusion partners are left off.
UniProt P10227: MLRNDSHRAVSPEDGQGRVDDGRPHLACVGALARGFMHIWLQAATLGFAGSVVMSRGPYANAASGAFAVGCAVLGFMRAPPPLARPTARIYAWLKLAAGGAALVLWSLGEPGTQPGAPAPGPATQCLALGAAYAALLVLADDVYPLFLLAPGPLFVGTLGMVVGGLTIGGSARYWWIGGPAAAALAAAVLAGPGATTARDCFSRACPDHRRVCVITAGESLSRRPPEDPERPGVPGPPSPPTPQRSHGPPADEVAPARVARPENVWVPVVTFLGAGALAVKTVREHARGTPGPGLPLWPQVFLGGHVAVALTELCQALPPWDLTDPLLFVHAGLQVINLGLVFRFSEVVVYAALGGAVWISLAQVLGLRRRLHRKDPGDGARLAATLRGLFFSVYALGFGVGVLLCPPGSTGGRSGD
UniProt P36404: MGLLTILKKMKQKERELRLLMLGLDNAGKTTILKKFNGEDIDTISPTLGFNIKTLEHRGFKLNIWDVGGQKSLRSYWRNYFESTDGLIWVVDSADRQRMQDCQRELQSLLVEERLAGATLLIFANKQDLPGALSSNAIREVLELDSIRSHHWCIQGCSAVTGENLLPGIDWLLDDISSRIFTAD

Legend:
[1] = target: HSV-1 UL43 protein, FLAG-tagged wild type (UL43-WT-FLAG) (herpes simplex virus 1 (HSV-1)) (UniProt P10227); assay: co-IP; mitochondrial proteins of transfected HUVEC cells (UL43-WT, UL43-Y144A, Mock; with or without ARL2-siRNA), 48 h after transfection, NP40 lysis buffer (50 mM Tris-HCl pH 8.0, 120 mM NaCl, 0.5% NP40, 1 mM PMSF); anti-FLAG, anti-ARL2 or IgG at 4 °C overnight, protein G agarose beads; Western blot
[2] = target: ARF-like 2 (ARL2) GTPase (human (endogenous in HUVEC)) (UniProt P36404); assay: as above

| Molecule | binding [1] | binding [2] |
| --- | --- | --- |
| ARF-like 2 (ARL2) GTPase (from UniProt P36404 1-184) | binds | – |
| ANT1 (SLC25A4), adenine nucleotide translocator protein (protein, UniProt P12235 1-298) MGDHAWSFLKDFLAGGVAAAVSKTAVAPIERVKLLLQVQHASKQISAEKQYKGIIDCVVRIPKEQGFLSFWRGNLANVIRYFPTQALNFAFKDKYKQLFLGGVDRHKQFWRYFAGNLASGGAAGATSLCFVYPLDFARTRLAADVGKGAAQREFHGLGDCIIKIFKSDGLRGLYQGFNVSVQGIIIYRAAYFGVYDTAKGMLPDPKNVHIFVSWMIAQSVTAVAGLVSYPFDTVRRRMMMQSGRKGADIMYTGTVDCWRKIAKDEGAKAFFKGAWSNVLRGMGGAFVLVLYDEIKKYV | – | binds |
